From publication PMC6180065, “Deciphering molecular details in the assembly of alpha-type carboxysome” (Scientific Reports, 2018)
Results are given in words; binding and its absence hold for the method and conditions named. In cells and extracts the contact can be indirect. Some results given as binding are weak or reduced against the parent protein; the word gives no strength. Tags and fused reporters may be left off the sequences shown.

Columns and labels:
[1] = target: T1, CbbL(N)-6xHis (Halothiobacillus neapolitan (ATCC 23641)) (UniProt O85040); assay: pull-down; CbbL(N)-6xHis co-expressed in E. coli with each shell protein separately; Ni Sepharose, SDS-PAGE
T1 sequence: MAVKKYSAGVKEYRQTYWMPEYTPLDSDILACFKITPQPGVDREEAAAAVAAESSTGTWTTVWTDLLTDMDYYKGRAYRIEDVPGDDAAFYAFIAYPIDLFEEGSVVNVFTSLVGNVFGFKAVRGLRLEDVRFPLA

[2] = target: T2, CbbL(1–100) fused to the N terminus of MBP with a C-terminal 6xHis tag (Halothiobacillus neapolitan (ATCC 23641)) (UniProt O85040); assay: pull-down; truncated CbbL(N) segments fused to MBP-6xHis with CsoS1A or CsoS1C; ligand binding ratio by densitometry, as percentage of that of the entire N domain
T2 sequence: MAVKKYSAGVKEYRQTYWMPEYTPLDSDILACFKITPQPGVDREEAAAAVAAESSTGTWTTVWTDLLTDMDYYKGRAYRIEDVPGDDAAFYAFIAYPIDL

[3] = target: T3, CbbL(1–136) fused to the N terminus of MBP with a C-terminal 6xHis tag (Halothiobacillus neapolitan (ATCC 23641)) (UniProt O85040); assay: as above
T3 sequence: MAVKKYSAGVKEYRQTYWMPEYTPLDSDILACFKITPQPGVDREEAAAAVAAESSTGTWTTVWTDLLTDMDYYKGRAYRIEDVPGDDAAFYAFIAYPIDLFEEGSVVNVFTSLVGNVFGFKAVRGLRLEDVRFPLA

[4] = target: T4, CbbL(1–73) fused to the N terminus of MBP with a C-terminal 6xHis tag (Halothiobacillus neapolitan (ATCC 23641)) (UniProt O85040); assay: as above
T4 sequence: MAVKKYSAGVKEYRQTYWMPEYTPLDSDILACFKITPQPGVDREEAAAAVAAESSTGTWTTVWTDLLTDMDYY

[5] = target: T5, CbbL(1–122) fused to the N terminus of MBP with a C-terminal 6xHis tag (Halothiobacillus neapolitan (ATCC 23641)) (UniProt O85040); assay: as above
T5 sequence: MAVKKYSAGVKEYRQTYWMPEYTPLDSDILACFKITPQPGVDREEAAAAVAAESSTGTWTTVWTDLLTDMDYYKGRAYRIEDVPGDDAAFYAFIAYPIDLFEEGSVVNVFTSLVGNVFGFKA

[6] = target: T6, CbbL(N)-mCherry-6xHis (Halothiobacillus neapolitan (ATCC 23641)) (UniProt O85040); assay: pull-down; CbbL(N)-mCherry-6xHis co-expressed in E. coli with all shell proteins (CsoS1A/1B/1C/1D, CsoS4A/4B; plasmid pZS-23641-CsoS41); cell extract on Ni resin; additional SDS-PAGE band identified by proteomics analysis
T6 sequence: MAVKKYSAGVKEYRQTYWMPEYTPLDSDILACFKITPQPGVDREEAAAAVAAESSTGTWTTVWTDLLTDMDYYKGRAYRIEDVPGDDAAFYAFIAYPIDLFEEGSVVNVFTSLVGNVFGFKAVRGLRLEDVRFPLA

Measured: binding

B1: CsoS1A (protein, UniProt P45689 1-98)
chain: MADVTGIALGMIETRGLVPAIEAADAMTKAAEVRLVGRQFVGGGYVTVLVRGETGAVNAAVRAGADACERVGDGLVAAHIIARVHSEVENILPKAPQA
binds: all assays above

B2: CsoS1C-6xHis (natural protein, Halothiobacillus neapolitan (ATCC 23641))
chain: MAAVTGIALGMIETRGLVPAIEAADAMTKAAEVRLVGRQFVGGGYVTVLVRGETGAVNAAVRAGADACERVGDGLVAAHIIARVHSEVENILPKAPEA
notes: Carboxysome shell protein CsoS1C of Halothiobacillus neapolitan (ATCC 23641); printed length 98 a.a; not measured in the assay
binds: all assays above

B3: CsoS1B (protein, UniProt P45690 1-110)
chain: MATTHGIALGMIETRGLVPAIEAADAMTKAAEVRLVGRSFVGGGYVTVMVRGETGAVNAAVRAGADACERVGDGLVAAHIIARVHSEVEIILPETPEDSDSAWCIANLNS
binds: [1]
